From PMC9950318
Results are given in words; binding and its absence hold for the method and conditions named. In cells and extracts the contact can be indirect. Some binding calls cover weakened binding; strength is not graded here.

By UniProt entry, the sequences of proteins in these tests, tags left out.
UniProt P60484: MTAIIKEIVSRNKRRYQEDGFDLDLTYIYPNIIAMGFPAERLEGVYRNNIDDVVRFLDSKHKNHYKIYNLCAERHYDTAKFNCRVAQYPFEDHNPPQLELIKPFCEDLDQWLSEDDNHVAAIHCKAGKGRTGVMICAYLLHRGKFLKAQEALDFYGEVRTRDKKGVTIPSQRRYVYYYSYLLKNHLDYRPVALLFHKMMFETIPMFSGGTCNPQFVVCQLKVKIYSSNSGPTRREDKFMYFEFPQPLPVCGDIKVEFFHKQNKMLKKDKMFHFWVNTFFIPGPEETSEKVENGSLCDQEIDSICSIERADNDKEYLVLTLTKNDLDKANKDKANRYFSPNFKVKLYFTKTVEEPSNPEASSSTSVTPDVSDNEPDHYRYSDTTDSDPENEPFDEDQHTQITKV

Target: PTEN (endogenous, A549) (human (endogenous in A549)) (UniProt P60484)
Test: co-IP; A549 cells with or without 50x isoleucine for 48 h; immunoprecipitation with anti-PTEN antibody (protein A immunomagnetic bead kit), Western blot; IgG as negative control

Row | Binder | binding
1 | Isoleucine-tRNA ligase, cytoplasmic (enzyme, UniProt P41252 1-1262) MLQQVPENINFPAEEEKILEFWTEFNCFQECLKQSKHKPKFTFYDGPPFATGLPHYGHILAGTIKDIVTRYAHQSGFHVDRRFGWDCHGLPVEYEIDKTLGIRGPEDVAKMGITEYNNQCRAIVMRYSAEWKSTVSRLGRWIDFDNDYKTLYPQFMESVWWVFKQLYDKGLVYRGVKVMPFSTACNTPLSNFESHQNYKDVQDPSVFVTFPLEEDETVSLVAWTTTPWTLPSNLAVCVNPEMQYVKIKDVARGRLLILMEARLSALYKLESDYEILERFPGAYLKGKKYRPLFDYFLKCKENGAFTVLVDNYVKEEEGTGVVHQAPYFGAEDYRVCMDFNIIRKDSLPVCPVDASGCFTTEVTDFAGQYVKDADKSIIRTLKEQGRLLVATTFTHSYPFCWRSDTPLIYKAVPSWFVRVENMVDQLLRNNDLCYWVPELVREKRFGNWLKDARDWTISRNRYWGTPIPLWVSDDFEEVVCIGSVAELEELSGAKISDLHRESVDHLTIPSRCGKGSLHRISEVFDCWFESGSMPYAQVHYPFENKREFEDAFPADFIAEGIDQTRGWFYTLLVLATALFGQPPFKNVIVNGLVLASDGQKMSKRKKNYPDPVSIIQKYGADALRLYLINSPVVRAENLRFKEEGVRDVLKDVLLPWYNAYRFLIQNVLRLQKEEEIEFLYNENTVRESPNITDRWILSFMQSLIGFFETEMAAYRLYTVVPRLVKFVDILTNWYVRMNRRRLKGENGMEDCVMALETLFSVLLSLCRLMAPYTPFLTELMYQNLKVLIDPVSVQDKDTLSIHYLMLPRVREELIDKKTESAVSQMQSVIELGRVIRDRKTIPIKYPLKEIVVIHQDPEALKDIKSLEKYIIEELNVRKVTLSTDKNKYGIRLRAEPDHMVLGKRLKGAFKAVMTSIKQLSSEELEQFQKTGTIVVEGHELHDEDIRLMYTFDQATGGTAQFEAHSDAQALVLLDVTPDQSMVDEGMAREVINRIQKLRKKCNLVPTDEITVYYKAKSEGTYLNSVIESHTEFIFTTIKAPLKPYPVSPSDKVLIQEKTQLKGSELEITLTRGSSLPGPACAYVNLNICANGSEQGGVLLLENPKGDNRLDLLKLKSVVTSIFGVKNTELAVFHDETEIQNQTDLLSLSGKTLCVTAGSAPSLINSSSTLLCQYINLQLLNAKPQECLMGTVGTLLLENPLGQNGLTHQGLLYEAAKVFGLRSRKLKLFLNETQTQEITEDIPVKTLNMKTVYVSVLPTTADF | binds
2 | Isoleucine-tRNA ligase, mitochondrial (enzyme, UniProt Q9NSE4 49-1012) SNHQPNSNSGRYRDTVLLPQTSFPMKLLGRQQPDTELEIQQKCGFSELYSWQRERKVKTEFCLHDGPPYANGDPHVGHALNKILKDIANRFHMMNGSKIHFVPGWDCHGLPIEIKVLSELGREAQNLSAMEIRKKARSFAKAAIEKQKSAFIRWGIMADWNNCYYTFDGKYEAKQLRTFYQMYDKGLVYRSYKPVFWSPSSRTALAEAELEYNPEHVSRSIYVKFPLLKPSPKLASLIDGSSPVSILVWTTQPWTIPANEAVCYMPESKYAVVKCSKSGDLYVLAADKVASVASTLETTFETISTLSGVDLENGTCSHPLIPDKASPLLPANHVTMAKGTGLVHTAPAHGMEDYGVASQHNLPMDCLVDEDGVFTDVAGPELQNKAVLEEGTDVVIKMLQTAKNLLKEEKLVHSYPYDWRTKKPVVIRASKQWFINITDIKTAAKELLKKVKFIPGSALNGMVEMMDRRPYWCISRQRVWGVPIPVFHHKTKDEYLINSQTTEHIVKLVEQHGSDIWWTLPPEQLLPKEVLSEVGGPDALEYVPGQDILDIWFDSGTSWSYVLPGPDQRADLYLEGKDQLGGWFQSSLLTSVAARKRAPYKTVIVHGFTLGEKGEKMSKSLGNVIHPDVVVNGGQDQSKEPPYGADVLRWWVADSNVFTEVAIGPSVLNAARDDISKLRNTLRFLLGNVADFNPETDSIPVNDMYVIDQYMLHLLQDLANKITELYKQYDFGKVVRLLRTFYTRELSNFYFSIIKDRLYCEKENDPKRRSCQTALVEILDVIVRSFAPILPHLAEEVFQHIPYIKEPKSVFRTGWISTSSIWKKPGLEEAVESACAMRDSFLGSIPGKNAAEYKVITVIEPGLLFEIIEMLQSEETSSTSQLNELMMASESTLLAQEPREMTADVIELKGKFLINLEGGDIREESSYKVIVMPTTKEKCPRCWKYTAESSDTLCPRCAEVVSGK | binds weakly
